# Test results: the supplement of paper PMC8256030
# Where a name gives a salt, the structure may show the parent alone. The list shows a part of the results. Repeats in this data set agree poorly, so a single value says little.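 HEK293T cells were given each compound shortly before transfection with a reporter in which red mCherry is followed by the SARS-CoV-2 frameshift element and then GFP in the −1 frame, so GFP appears only after frameshifting.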
# Tested on: HEK293T
# Assay: percent viability (nuclei count) relative to control; higher = more viable cells
# Conditions: 10 µM; 24 h
row,Compound,percent viability [%]
1,NC1CCN(c2c(F)cc3c(=O)c(C(=O)O)cn(C4CC4)c3c2Cl)C1 (stereo not given) [Clinafloxacin],141
2,CC1=C(C(=O)O)N2C(=O)[C@@H](NC(=O)[C@H](N)c3ccccc3)[C@H]2SC1 [cefalexin],99.8
3,CCCCN(CCCC)CCCOC(=O)c1ccc(N)cc1 [butacaine],190
4,CO[C@H]1C[C@H](O[C@@H]2/C(C)=C\C[C@@H]3C[C@@H](C[C@]4(C=C[C@H](C)[C@@H](C(C)C)O4)O3)OC(=O)[C@@H]3C=C(C)[C@@H](O)[C@H]4OC/C(=C/C=C\[C@@H]2C)[C@]43O)O[C@@H](C)[C@H]1O[C@H]1C[C@@H](OC)[C@H](NC(C)=O)[C@H](C)O1,302
5,Cc1ccccc1N1CCN(CCc2nnc3n2CCCC3)CC1 [dapiprazole],156
6,CC1=C(/C=C/C(C)=C/C=C/C(C)=C/CO)C(C)(C)CCC1,96.5
7,COCC(=O)O[C@]1(CCN(C)CCCc2nc3ccccc3[nH]2)CCc2cc(F)ccc2[C@@H]1C(C)C [mibefradil],104
8,CCOc1nc2cccc(C(=O)O)c2n1Cc1ccc(-c2ccccc2-c2nn[nH]n2)cc1,336
9,CC1=C(C/C=C(\C)CCC[C@H](C)CCC[C@H](C)CCCC(C)C)C(=O)c2ccccc2C1=O [Mephyton],266
10,CN(C)CCCN1c2ccccc2Sc2cccnc21 [prothipendyl],528
11,Cc1cc(=O)oc2cc(O)ccc12 [hymecromone],299
12,NNc1nncc2ccccc12 [hydralazine],144
13,CC(=O)[C@@]12O[C@](C)(c3ccccc3)O[C@@H]1C[C@H]1[C@@H]3CCC4=CC(=O)CC[C@]4(C)[C@H]3CC[C@@]12C,300
14,NC(=O)OCC(COC(N)=O)c1ccccc1 [felbamate],192
15,N[C@@H](CO)C(=O)O [serine],171
16,CNS(=O)(=O)Cc1ccc2[nH]cc(CCN(C)C)c2c1,195
17,O=C(c1cccnc1)N1CCOCC1 [nicopholine],294
18,CCC(C)C(C(=O)OC1CC[N+](C)(C)CC1)c1ccccc1 (stereo not given) [pentapiperium metilsulfate],102
19,Cc1[nH]c2ccccc2c1C[C@@H](NC(=O)[C@@H](N)Cc1c[nH]cn1)C(=O)N[C@@H](C)C(=O)N[C@@H](Cc1c[nH]c2ccccc12)C(=O)N[C@H](Cc1ccccc1)C(=O)N[C@@H](CCCCN)C(N)=O [examorelin],262
20,CCCCCC[C@@H](CCC)C(=O)O [arundic acid],71

row,Compound,percent viability [%]
1,COc1ccc([C@]2(C#N)CC[C@@H](C(=O)O)CC2)cc1OC1CCCC1 [cilomilast],180
2,"Oc1c(I)cc(I)c2cccnc12 [5,7-Diiodo-8-hydroxyquinoline]",13.5
3,CC(=O)Oc1ccccc1C(=O)O,153
4,C[Se]CCC(N)C(=O)O (stereo not given),331
5,CN(C)CC[C@@H](c1ccc(Cl)cc1)c1ccccn1 [dexchlorphenamine],293
6,C[C@]12CC[C@@H]3c4ccc(O)cc4CC[C@H]3[C@@H]1C[C@H](O)[C@@H]2O,284
7,NCc1ccccc1CC(=O)N[C@@H]1C(=O)N2C(C(=O)O)=C(CSc3nnnn3CC(=O)O)CS[C@H]12,152
8,COc1cc(/C=C/C(N)=O)cc(OC)c1OC,110
9,CO[C@@H]1[C@@H](OC(N)=O)[C@@H](O)[C@H](Oc2ccc3c(O)c(NC(=O)c4ccc(O)c(CC=C(C)C)c4)c(=O)oc3c2C)OC1(C)C [Novobiocin·Na],205
10,CC1(C)S[C@@H]2[C@H](NC(=O)[C@H](C(=O)O)c3ccsc3)C(=O)N2[C@H]1C(=O)O,399
11,N[C@@H](Cc1c[nH]c2ccc(O)cc12)C(=O)O [oxitriptan],184
12,CCCCC(CC)CN=C(N)NC(N)=NCCCCCCN=C(N)NC(N)=NCC(CC)CCCC (stereo not given),217
13,C(=C(C1CCCCC1)C1CCCCC1)C1CCCCN1 (stereo not given) [hexadiline],167
14,Cc1ccccc1OCC(O)CO (stereo not given) [mephenesin],330
15,C[C@@H](O)[C@H]1C(=O)N2C(C(=O)O)=C(S[C@@H]3CN[C@H](C(=O)N(C)C)C3)[C@H](C)[C@H]12 [Meropenem],126
16,C1CNCCN1,186
17,CCCCc1nc(Cl)c(CO)n1Cc1ccc(-c2ccccc2-c2nnn[nH]2)cc1 [losartan],211
18,N=C(N=C(N)N)N1CCOCC1 [Moroxydine·HCl],17.8
19,NS(=O)(=O)Cc1noc2ccccc12 [zonisamide],216
20,CO[C@H]1C[C@H](O[C@H]2[C@H](C)[C@@H](O[C@@H]3O[C@H](C)C[C@H](N(C)C)[C@H]3O)[C@@H](C)C[C@@]3(CO3)C(=O)[C@H](C)[C@@H](O)[C@@H](C)[C@@H](C)OC(=O)[C@@H]2C)O[C@@H](C)[C@@H]1O [oleandomycin],219

# Nothing new here: an excerpt of the list.
row,Compound,percent viability [%]
4,C[Se]CCC(N)C(=O)O (stereo not given),331
5,CN(C)CC[C@@H](c1ccc(Cl)cc1)c1ccccn1 [dexchlorphenamine],293
6,C[C@]12CC[C@@H]3c4ccc(O)cc4CC[C@H]3[C@@H]1C[C@H](O)[C@@H]2O,284
